Assay results as given in the supplement of paper PMC7661543.
± gives the standard deviation of the averaged measurements. Differences between knockout arms are mostly noise. Where a SMILES comes first, the peptide text is derived from it. The star is where a group is joined. Cbz = O=C(OCc1ccccc1)*

Tested on: HCC-38
Test: relative cell number vs DMSO control (72 h) (% of DMSO); higher = less growth inhibition (more cells)
Method: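 QMAP-Seq: a pool of 5 breast cancer cell lines (ZR-75-1, SKBR3, HCC-38, MDA-MB-231, BT-20), each carrying 12 doxycycline-inducible Cas9 sgRNA perturbations (11 knockouts plus non-targeting sgNT), was treated with compounds for 72 h at four 10-fold doses (10 nM-10 uM or 1 nM-1 uM range). Barcodes were amplified and sequenced, and cell number was interpolated from 293T spike-in standard curves. The result is expressed as % of the median of DMSO wells. Two biological replicates.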

[1] = sgRNA knockout: sgATF3, 1000 nM
[2] = sgRNA knockout: sgATF3, 10000 nM
[3] = sgRNA knockout: sgATF4, 1000 nM
[4] = sgRNA knockout: sgATF4, 10000 nM
[5] = sgRNA knockout: sgATF6, 1000 nM
[6] = sgRNA knockout: sgATF6, 10000 nM
[7] = sgRNA knockout: sgATG7, 1000 nM
[8] = sgRNA knockout: sgATG7, 10000 nM
[9] = sgRNA knockout: sgERN1, 1000 nM
[10] = sgRNA knockout: sgERN1, 10000 nM
[11] = sgRNA knockout: sgHSF1, 1000 nM
[12] = sgRNA knockout: sgHSF1, 10000 nM
[13] = sgRNA knockout: sgHSF2, 1000 nM
[14] = sgRNA knockout: sgHSF2, 10000 nM
[15] = sgRNA knockout: sgKEAP1, 100 nM
[16] = sgRNA knockout: sgKEAP1, 1000 nM
[17] = sgRNA knockout: sgKEAP1, 10000 nM
[18] = sgRNA knockout: sgNFE2L2, 10 nM
[19] = sgRNA knockout: sgNFE2L2, 100 nM
[20] = sgRNA knockout: sgNFE2L2, 1000 nM
[21] = sgRNA knockout: sgNFE2L2, 10000 nM
[22] = sgRNA knockout: sgSLC35F2, 10 nM
[23] = sgRNA knockout: sgSLC35F2, 100 nM
[24] = sgRNA knockout: sgSLC35F2, 1000 nM
[25] = sgRNA knockout: sgSLC35F2, 10000 nM
[26] = sgRNA knockout: sgXBP1, 1000 nM
[27] = sgRNA knockout: sgXBP1, 10000 nM

## Cc1cc2c(F)c(Oc3ncnn4cc(OC[C@@H](C)O)c(C)c34)ccc2[nH]1 [Brivanib]
sgRNA knockout: sgATF3, 10 nM
  relative cell number: 102 ± 9.6
sgRNA knockout: sgATF3, 100 nM
  relative cell number: 83.9 ± 9.6
[1]
  relative cell number: 94.1 ± 8.7
[2]
  relative cell number: 82.3 ± 5.5
sgRNA knockout: sgATF4, 10 nM
  relative cell number: 96.8 ± 1.6
sgRNA knockout: sgATF4, 100 nM
  relative cell number: 94.2 ± 17
[3]
  relative cell number: 92.5 ± 8.9
[4]
  relative cell number: 77.6 ± 10
sgRNA knockout: sgATF6, 10 nM
  relative cell number: 101 ± 6.6
sgRNA knockout: sgATF6, 100 nM
  relative cell number: 91.3 ± 1
[5]
  relative cell number: 101 ± 3.1
[6]
  relative cell number: 78.8 ± 4.2
sgRNA knockout: sgATG7, 10 nM
  relative cell number: 91.9 ± 3.2
sgRNA knockout: sgATG7, 100 nM
  relative cell number: 92.1 ± 14
[7]
  relative cell number: 99.2 ± 1.8
[8]
  relative cell number: 80.4 ± 6.7
sgRNA knockout: sgERN1, 10 nM
  relative cell number: 92.1 ± 2
sgRNA knockout: sgERN1, 100 nM
  relative cell number: 81.4 ± 16
[9]
  relative cell number: 92.7 ± 5.3
[10]
  relative cell number: 78.3 ± 1.2
sgRNA knockout: sgHSF1, 10 nM
  relative cell number: 97.7 ± 31
sgRNA knockout: sgHSF1, 100 nM
  relative cell number: 94.3 ± 2.8
[11]
  relative cell number: 105 ± 1.7
[12]
  relative cell number: 73 ± 30
sgRNA knockout: sgHSF2, 10 nM
  relative cell number: 103 ± 6.2
sgRNA knockout: sgHSF2, 100 nM
  relative cell number: 96 ± 19
[13]
  relative cell number: 90.8 ± 13
[14]
  relative cell number: 80.1 ± 9.6
sgRNA knockout: sgKEAP1, 10 nM
  relative cell number: 105 ± 17
[15]
  relative cell number: 96 ± 29
[16]
  relative cell number: 93.6 ± 20
[17]
  relative cell number: 83 ± 2.9
[18]
  relative cell number: 95.4 ± 1.9
[19]
  relative cell number: 95.8 ± 23
[20]
  relative cell number: 98.8 ± 8.9
[21]
  relative cell number: 77.7 ± 3
[22]
  relative cell number: 96.8 ± 5.1
[23]
  relative cell number: 84.7 ± 8.5
[24]
  relative cell number: 88.7 ± 6.3
[25]
  relative cell number: 76.6 ± 4.8
sgRNA knockout: sgXBP1, 10 nM
  relative cell number: 96.1 ± 5.8
sgRNA knockout: sgXBP1, 100 nM
  relative cell number: 86.9 ± 13
[26]
  relative cell number: 88.8 ± 8.6
[27]
  relative cell number: 83.5 ± 10

## OCCn1cc(-c2ccc3c(c2)CC/C3=N\O)c(-c2ccncc2)n1 [GDC0879]
sgRNA knockout: sgATF3, 10 nM
  relative cell number: 107 ± 36
sgRNA knockout: sgATF3, 100 nM
  relative cell number: 111 ± 7.2
[1]
  relative cell number: 137 ± 7.8
[2]
  relative cell number: 112 ± 5.2
sgRNA knockout: sgATF4, 10 nM
  relative cell number: 97.7 ± 26
sgRNA knockout: sgATF4, 100 nM
  relative cell number: 113.9 ± 0.58
[3]
  relative cell number: 136 ± 16
[4]
  relative cell number: 107 ± 3.8
sgRNA knockout: sgATF6, 10 nM
  relative cell number: 112 ± 8.3
sgRNA knockout: sgATF6, 100 nM
  relative cell number: 116 ± 8.8
[5]
  relative cell number: 153 ± 25
[6]
  relative cell number: 119 ± 12
sgRNA knockout: sgATG7, 10 nM
  relative cell number: 111 ± 34
sgRNA knockout: sgATG7, 100 nM
  relative cell number: 117.15 ± 0.04
[7]
  relative cell number: 131 ± 15
[8]
  relative cell number: 105 ± 8.3
sgRNA knockout: sgERN1, 10 nM
  relative cell number: 105 ± 35
sgRNA knockout: sgERN1, 100 nM
  relative cell number: 127 ± 10
[9]
  relative cell number: 122 ± 4
[10]
  relative cell number: 110 ± 3.4
sgRNA knockout: sgHSF1, 10 nM
  relative cell number: 105 ± 12
sgRNA knockout: sgHSF1, 100 nM
  relative cell number: 124 ± 9.9
[11]
  relative cell number: 129 ± 2.8
[12]
  relative cell number: 123 ± 8.6
sgRNA knockout: sgHSF2, 10 nM
  relative cell number: 114 ± 28
sgRNA knockout: sgHSF2, 100 nM
  relative cell number: 124 ± 3.1
[13]
  relative cell number: 135 ± 1.9
[14]
  relative cell number: 125 ± 5.7
sgRNA knockout: sgKEAP1, 10 nM
  relative cell number: 106 ± 6.8
[15]
  relative cell number: 119 ± 6.1
[16]
  relative cell number: 148 ± 4.9
[17]
  relative cell number: 130 ± 31
[18]
  relative cell number: 101 ± 42
[19]
  relative cell number: 114.66 ± 0.085
[20]
  relative cell number: 135 ± 24
[21]
  relative cell number: 100 ± 9.1
[22]
  relative cell number: 112 ± 29
[23]
  relative cell number: 122 ± 7
[24]
  relative cell number: 131 ± 16
[25]
  relative cell number: 112 ± 15
sgRNA knockout: sgXBP1, 10 nM
  relative cell number: 108 ± 32
sgRNA knockout: sgXBP1, 100 nM
  relative cell number: 117 ± 15
[26]
  relative cell number: 130 ± 23
[27]
  relative cell number: 110 ± 2.4

## CC(C)C[C@@H](C=O)NC(=O)[C@H](CC(C)C)NC(=O)[C@H](CC(C)C)NC(=O)OCc1ccccc1 [MG132] (Cbz-Leu-Leu-Leu-aldehyde)
sgRNA knockout: sgATF3, 10 nM
  relative cell number: 99.9 ± 6.8
sgRNA knockout: sgATF3, 100 nM
  relative cell number: 99.9 ± 6.6
[1]
  relative cell number: 7.44 ± 0.54
[2]
  relative cell number: 7.5 ± 1.6
sgRNA knockout: sgATF4, 10 nM
  relative cell number: 88.3 ± 3
sgRNA knockout: sgATF4, 100 nM
  relative cell number: 102 ± 9.4
[3]
  relative cell number: 6 ± 0.75
[4]
  relative cell number: 7.229 ± 0.061
sgRNA knockout: sgATF6, 10 nM
  relative cell number: 83.06 ± 0.22
sgRNA knockout: sgATF6, 100 nM
  relative cell number: 96.91 ± 0.82
[5]
  relative cell number: 10.7 ± 0.63
[6]
  relative cell number: 10.1 ± 3.1
sgRNA knockout: sgATG7, 10 nM
  relative cell number: 88.1 ± 11
sgRNA knockout: sgATG7, 100 nM
  relative cell number: 92.8 ± 15
[7]
  relative cell number: 7.21 ± 1.6
[8]
  relative cell number: 8.4 ± 1.2
sgRNA knockout: sgERN1, 10 nM
  relative cell number: 99.3 ± 12
sgRNA knockout: sgERN1, 100 nM
  relative cell number: 95.9 ± 7.7
[9]
  relative cell number: 6.27 ± 0.64
[10]
  relative cell number: 8.15 ± 2.9
sgRNA knockout: sgHSF1, 10 nM
  relative cell number: 89.3 ± 12
sgRNA knockout: sgHSF1, 100 nM
  relative cell number: 90.3 ± 7.2
[11]
  relative cell number: 7.64 ± 0.82
[12]
  relative cell number: 4.705 ± 0.011
sgRNA knockout: sgHSF2, 10 nM
  relative cell number: 88.9 ± 4.3
sgRNA knockout: sgHSF2, 100 nM
  relative cell number: 111 ± 12
[13]
  relative cell number: 7.6 ± 0.15
[14]
  relative cell number: 6.18 ± 0.78
sgRNA knockout: sgKEAP1, 10 nM
  relative cell number: 89.8 ± 29
[15]
  relative cell number: 92 ± 20
[16]
  relative cell number: 8.14 ± 1.3
[17]
  relative cell number: 5.83 ± 2.6
[18]
  relative cell number: 85.8 ± 9.2
[19]
  relative cell number: 96.3 ± 23
[20]
  relative cell number: 6.27 ± 0.14
[21]
  relative cell number: 5.82 ± 1.1
[22]
  relative cell number: 93.61 ± 0.45
[23]
  relative cell number: 99.1 ± 19
[24]
  relative cell number: 7.06 ± 0.32
[25]
  relative cell number: 7.14 ± 1.7
sgRNA knockout: sgXBP1, 10 nM
  relative cell number: 91.3 ± 1
sgRNA knockout: sgXBP1, 100 nM
  relative cell number: 101 ± 16
[26]
  relative cell number: 7.01 ± 0.13
[27]
  relative cell number: 7.54 ± 1.2
